Patent US20230192765A1, “PEPTIDES TARGETING SHP2 AND USES THEREOF” (UNIVERSITÀ DEGLI STUDI DI ROMA "TOR VERGATA", priority 2020, published 2023)
Part of at least one peptide drawing is inferred or uncertain, most often the ends. *1 amine or outer side, *2 acyl side, *3 side chain or, on linkers, in order; H or OH if unused. Where a SMILES comes first, the peptide text is derived from it. Cysteamide = C(CS[*:3])N[*:1]

System: NIH3T3 cells
Test: Cell uptake experiments (FACS)
Type: cell-based
Details: cargo CF-P9W5 0.5-2.0 µM; 120 minutes
Protocol: Cell uptake experiments were performed on NIH3T3 cells. About 200,000 cells were seeded on six-well plates and cultured in Dulbecco’s modified Eagle’s medium supplemented with 10% heat-inactivated fetal bovine serum (Gibco) and 1 % penicillin-streptomycin, at 37° C. with 5% CO2.
Two different strategies were followed. In a first set of experiments, the fluorescent peptide has been incubated with the cell-penetrating peptide (CPP) Pep-1. A Pep-1 stock solution was prepared by dissolving the peptide in ultrapure water. The fluorescent peptide was diluted in PBS from the DMSO stock solution. The peptides were mixed and incubated for 30 minutes at room temperature in a final volume of 400 µl. The conditions for cell delivery were optimized by investigating different cargo to CPP ratios. The mixture was then added to the cells, washed with PBS, together with 600 µl of serum-free medium (volumes for one well are reported). After one hour, 10% of fetal bovine serum (FBS) was added.
Cells were incubated for different times and then washed, collected and stained with SYTOX blue (1 mM, Invitrogen™) to identify the viable population and the green fluorescence of CFP9W5 was recordered to measure peptide uptake. Data were analysed with Kaluza Analysis Software (Beckman Coulter).
A second set of measurement was carried out using the TAT-conjugated peptide analog. […]

CC(=O)N[C@@H](CCCCN)C(=O)N[C@@H](CCC(=O)O)C(=O)N[C@H](C(=O)N[C@@H](Cc1c[nH]c2ccccc12)C(=O)N[C@@H](Cc1c[nH]c2ccccc12)C(=O)N[C@@H](CCC(=O)O)C(=O)N[C@H](C(=O)N[C@@H](Cc1c[nH]c2ccccc12)C(=O)N[C@@H](Cc1c[nH]c2ccccc12)C(=O)N[C@H](C(=O)N[C@@H](CCC(=O)O)C(=O)N[C@@H](Cc1c[nH]c2ccccc12)C(=O)N[C@@H](CO)C(=O)N[C@@H](CCC(N)=O)C(=O)N1CCC[C@H]1C(=O)N[C@@H](CCCCN)C(=O)N[C@@H](CCCCN)C(=O)N[C@@H](CCCCN)C(=O)N[C@@H](CCCNC(=N)N)C(=O)N[C@@H](CCCCN)C(=O)N[C@H](C(=O)NCCS)C(C)C)[C@@H](C)O)[C@@H](C)O)[C@@H](C)O [Pep1, reference compound] (Ac-KETWWETWWTEWSQPKKKRKV-Cysteamide)
CPP concentration at which cell uptake was maximal: 10 µM
